From PMC7455142
Results are given in words; binding and its absence hold for the method and conditions named. Binding seen in cells or lysates may run through a third protein. Some entries that bind do so weakly or less than the wild type.

Protein sequences, listed by entry. Tags and fused reporters are not part of them. Lines headed by an entry give the natural chain unless they say otherwise; changes in a name come on top. Chains listed by the source or under a name are the forms on record and can include a tag or linker.
3xFlag-tagged Cdc42 splice variant 2 (P60953, form named): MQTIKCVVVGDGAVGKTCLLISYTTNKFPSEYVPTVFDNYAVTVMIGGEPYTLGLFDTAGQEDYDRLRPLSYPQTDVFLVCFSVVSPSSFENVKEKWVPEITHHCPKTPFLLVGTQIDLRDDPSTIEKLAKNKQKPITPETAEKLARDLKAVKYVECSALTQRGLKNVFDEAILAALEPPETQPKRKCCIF

Legend:
[1] = molecular target: 3xFlag-tagged Cdc42 splice variant 2 (UniProt P60953); assay: co-IP; Flag-tagged Cdc42 with full-length EGFR, EGFR ICD or EGFR ECD in HEK293 cells; IP Flag
[2] = molecular target: 3xFlag-tagged Cdc42 variant 1 (canonical Cdc42) (UniProt P60953); assay: as above
[3] = molecular target: 3xFlag-tagged Cdc42 splice variant 2 (UniProt P60953); assay: co-IP; Cdc42 V1 or V2 with endogenous EGFR and clathrin in HEK293 cells

binding [1] | binding [2] | binding [3] | Substance
binds |  |  | full-length EGFR (from UniProt P00533 25-1210) (receptor)
no binding | no binding |  | EGFR extracellular domain (ECD) (from UniProt P00533 25-645) (domain or fragment)
 |  | binds | endogenous EGFR (from UniProt P00533 25-1210) (receptor)
